Measured values taken from PubChem BioAssay AID588827 (Broad Institute, 2011).
Screen size: about 2,400 compounds; about 20 (0.8%) were called active. The shares of active, inactive and inconclusive entries below differ from those in the screen.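 Rule for the calls: active = fitted half-maximal concentration for signal decrease at or below twice the top tested dose, in every repeat run; inconclusive = repeat runs disagree, or flat partial inhibition, or poor fit; inactive = all runs flat, wrong-direction or potency beyond limit.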

assay: GFP reporter loss versus dox-driven RFP – NIH3T3 R4 cells, cherry-pick, set 4, dose response (AID 588827); details: NIH3T3 R4 HSF-1 GFP reporter, heat shock, 48 h; at 19.5 µM (top of the series) unless noted;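 note: 0% = neutral control wells and -100% = didemnin B at 400 nM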

Row | SMILES | activity change, negative = inhibition
1 | CCN(CCS(=O)(=O)c1ccc(Cl)cc1)C(=O)Nc1ccccc1 | inconclusive: 6.53%
2 | CC1(C)Cc2nc3[nH]c(=S)n(-c4ccccc4)c(=O)c3cc2CO1 | inactive: -13.3%
3 | Cc1ccc(C(=O)N/C(=C/c2ccco2)C(=O)Nc2cccc(C(=O)O)c2)cc1 | inactive: -3.67%
4 | CC1=C(C(=O)OCc2ccc3c(c2)OCO3)C(c2ccc(F)cc2)NC(=O)N1 (centres undefined) | inconclusive: -42.7%
5 | Cc1ccc(-c2cc3c(N=O)c4ccccc4c-3n[nH]2)cc1 | inactive: 9.74%
6 | CCN(CC)c1ncnc2ccc(Br)cc12 | inconclusive: -46.6%
7 | O=C(NCc1ccccc1C(F)(F)F)C1CC(c2ccc(C(F)(F)F)cc2)=NO1 (centres undefined) | inconclusive: -31.2%
8 | O=C(Nc1cccnc1)c1noc2c1CCCCC2 | inconclusive: 7.87%
9 | Fc1ccc(-n2cc(-c3ccccc3)c3c(N4CCOCC4)ncnc32)cc1 | inconclusive: -70.4%
10 | COC(=O)c1ccc2nc(Nc3nc4ccc(F)cc4s3)sc2c1 | inconclusive: -30.8%
11 | CC1CC(C)CN(C(=O)c2ccc(CSc3nc4ccncc4[nH]3)cc2)C1 (centres undefined) | inconclusive: -75.4%
12 | CCOC(=O)N1CCN(S(=O)(=O)c2ccc3c(c2)OCC(=O)N3)CC1 | inactive: -10.4%
13 | Nc1nc(F)nc2c1ncn2[C@@H]1O[C@H](CO)[C@@H](O)[C@H]1O | inconclusive: -46.3%
14 | CCCN(CCC)C(=O)CSc1nc2ccsc2c(=O)n1NC(=O)c1ccccc1 | inactive: -0.911%
15 | COc1cccc(NC(=O)Nc2nnc(Cc3ccccc3F)s2)c1 | inactive: -18.8%
16 | O=C(COc1ccc(F)cc1Cl)Nc1nc(-c2ccccn2)cs1 | inconclusive: 14.2%
17 | Cc1ccc(C(=O)N/N=C/c2ccc([N+](=O)[O-])s2)cc1 | inconclusive: 10.8%
18 | Cc1cc(N2CCN(c3ccc(F)cc3)CC2)nc2cc(O)ccc12 | inconclusive: 9.4%
19 | CCOC(=O)N1CCN(C(=O)c2ccc(CS(=O)(=O)c3c(Cl)cccc3Cl)o2)CC1 | inconclusive: -7.4%
20 | Cn1c(=O)c2ccccc2n(Cc2ccccc2Cl)c1=O | inactive: -29.6%
21 | CCCCOC(=O)CSCC(=O)Nc1cc(C)on1 | inactive: 2.2%
22 | O=C(c1ccc([N+](=O)[O-])s1)N1CCN(c2cccc(Cl)c2)CC1 | inactive: -14.1%
23 | Cc1occc1C(=O)Nc1cc(C(F)(F)F)ccc1Cl | inconclusive: -7.49%
24 | COc1ccc(-n2c(C)cc(-c3csc(NC(=O)c4ccc(S(=O)(=O)N(C)C)cc4)n3)c2C)cc1 | inconclusive: -25.7%
25 | COc1ccc2nnc(-c3ccc(C(F)(F)F)cc3)n2n1 | inactive: -29%
26 | Cc1coc(NC(=O)CSc2nc(-c3ccc(Cl)cc3)cc(C(F)(F)F)c2C#N)n1 | inconclusive: 13.3%
27 | C=C(C)Cn1c(NCCC)nc2c1c(=O)n(C)c(=O)n2C | inconclusive: -4.19%

Sorted by SMILES length (falling): part of the list above.
Row | SMILES | activity change, negative = inhibition
24 | COc1ccc(-n2c(C)cc(-c3csc(NC(=O)c4ccc(S(=O)(=O)N(C)C)cc4)n3)c2C)cc1 | inconclusive: -25.7%
19 | CCOC(=O)N1CCN(C(=O)c2ccc(CS(=O)(=O)c3c(Cl)cccc3Cl)o2)CC1 | inconclusive: -7.4%
26 | Cc1coc(NC(=O)CSc2nc(-c3ccc(Cl)cc3)cc(C(F)(F)F)c2C#N)n1 | inconclusive: 13.3%
4 | CC1=C(C(=O)OCc2ccc3c(c2)OCO3)C(c2ccc(F)cc2)NC(=O)N1 (centres undefined) | inconclusive: -42.7%
22 | O=C(c1ccc([N+](=O)[O-])s1)N1CCN(c2cccc(Cl)c2)CC1 | inactive: -14.1%
14 | CCCN(CCC)C(=O)CSc1nc2ccsc2c(=O)n1NC(=O)c1ccccc1 | inactive: -0.911%
5 | Cc1ccc(-c2cc3c(N=O)c4ccccc4c-3n[nH]2)cc1 | inactive: 9.74%
10 | COC(=O)c1ccc2nc(Nc3nc4ccc(F)cc4s3)sc2c1 | inconclusive: -30.8%
27 | C=C(C)Cn1c(NCCC)nc2c1c(=O)n(C)c(=O)n2C | inconclusive: -4.19%
25 | COc1ccc2nnc(-c3ccc(C(F)(F)F)cc3)n2n1 | inactive: -29%
23 | Cc1occc1C(=O)Nc1cc(C(F)(F)F)ccc1Cl | inconclusive: -7.49%
8 | O=C(Nc1cccnc1)c1noc2c1CCCCC2 | inconclusive: 7.87%
6 | CCN(CC)c1ncnc2ccc(Br)cc12 | inconclusive: -46.6%

More results follow.

Row | SMILES | activity change, negative = inhibition
28 | CN1C(C(=O)Nc2ccc(OC(F)(F)F)cc2)=CC(c2cccs2)=NS1(=O)=O | inconclusive: -52.5%
29 | CC(=O)/C(=N\Nc1ccc(Cl)cc1)Sc1nnc(-c2ccccc2)n1-c1ccccc1 | inconclusive: -18.6%
30 | CC(/C=C/c1ccc2c(c1)OCO2)=N/NC(=O)c1ccncc1 | inconclusive: -31.4%
31 | CS(=O)(=O)c1ccc(C(=O)OCc2nnc(-c3ccc(Cl)cc3)o2)cc1[N+](=O)[O-] | inconclusive: -36.3%
32 | O=C(CCCc1nc(-c2ccccc2Cl)no1)NC1CCCC1 | inactive: 8.17%
33 | Cc1cccc(CS(=O)(=O)c2nnc([C@H](Cc3ccccc3)NC(=O)OC(C)(C)C)o2)c1 | inconclusive: 13.6%
34 | COC(=O)c1nn(-c2ccc3c(c2)CCN3C(C)=O)cc1O | inactive: 21.1%
35 | Cc1nc2sccn2c(=O)c1S(=O)(=O)Nc1ccc(N2CCOCC2)c(Cl)c1 | inactive: -25.3%
36 | CC1CCC2(CC1)N=C(N)Nc1nc3ccccc3n12 (centres undefined) | inconclusive: -9.45%
37 | O=C(Nc1ccc(S(=O)(=O)N2CCOCC2)cc1)c1ccc(Cl)cc1Cl | inactive: -21.7%
38 | CC1CCN(C(=O)CSc2nc3c(cnn3-c3ccc(Cl)cc3)c(=O)[nH]2)CC1 | inconclusive: -21.7%
39 | CCn1c(C)nc2cc(C(=O)NNC(=S)Nc3ccccc3)ccc21 | inconclusive: 2.21%
40 | CCOC(=O)COc1ccccc1/C=C\[N+](=O)[O-] | inconclusive: -64%
41 | O=C1C(Cl)=C(Nc2ccc3cn[nH]c3c2)C(=O)c2ccccc21 | inconclusive: -56.9%
42 | Cc1ccc(/C=[N+](\[O-])c2ccc(N(C)C)cc2)c2nsnc12 | inconclusive: -40.9%
43 | O=C(CN1C(=O)c2ccccc2S1(=O)=O)c1ccc2c(c1)OCCCO2 | inconclusive: -0.221%
44 | CCc1ccc(-c2nc(CS(=O)CC(=O)NCc3cccnc3)c(C)o2)cc1 (centres undefined) | inconclusive: -5.61%
45 | CCS(=O)(=O)c1ncc(Cl)c(C(=O)Nc2ccc(S(=O)(=O)N3CCC(C)CC3)cc2)n1 | inconclusive: -67.5%
46 | CCOC(=O)Cc1cnc(NC(=O)c2ccccc2)s1 | inconclusive: -10.8%
47 | CCOc1cc(/C=N/NC(=O)c2cccc(S(=O)(=O)N3CCOCC3)c2)ccc1OCC(=O)N(C)C | inactive: -8.98%
48 | CCC1Sc2ccc(S(=O)(=O)Nc3ccc(OC)cc3)cc2NC1=O (centres undefined) | inconclusive: -39.4%
49 | CC1CC(c2ccccc2)n2nc(NC(=O)c3cccs3)nc2N1 (centres undefined) | inconclusive: 29%
50 | CCC(Sc1nc2cc(OC)c(OC)cc2c(=O)n1CCc1ccc(S(N)(=O)=O)cc1)C(=O)NCCOC (centres undefined) | inactive: 16.7%
51 | CCOC(=O)c1c(NC(=O)CNC2CCCc3ccccc32)sc(C(N)=O)c1C (centres undefined) | inconclusive: 7.92%
52 | CC1=C(C(=O)Nc2ccccc2)C(c2cc(CN3CCOCC3)cs2)C2=C(CCCC2=O)N1 (centres undefined) | inconclusive: -18.5%
53 | COc1ccc(CN2CCC(C(=O)Nc3ccc(Oc4cccnc4)cc3)CC2)c(C)c1C | inconclusive: -58.5%
54 | COc1ccc(O)c(C2=Nc3ccccc3N=C(c3cccs3)C2)c1 | inconclusive: -13.7%
